The target of experiment [1] is T1, Myc-tagged OTUD4, full length (UniProt Q01804).
T1 sequence: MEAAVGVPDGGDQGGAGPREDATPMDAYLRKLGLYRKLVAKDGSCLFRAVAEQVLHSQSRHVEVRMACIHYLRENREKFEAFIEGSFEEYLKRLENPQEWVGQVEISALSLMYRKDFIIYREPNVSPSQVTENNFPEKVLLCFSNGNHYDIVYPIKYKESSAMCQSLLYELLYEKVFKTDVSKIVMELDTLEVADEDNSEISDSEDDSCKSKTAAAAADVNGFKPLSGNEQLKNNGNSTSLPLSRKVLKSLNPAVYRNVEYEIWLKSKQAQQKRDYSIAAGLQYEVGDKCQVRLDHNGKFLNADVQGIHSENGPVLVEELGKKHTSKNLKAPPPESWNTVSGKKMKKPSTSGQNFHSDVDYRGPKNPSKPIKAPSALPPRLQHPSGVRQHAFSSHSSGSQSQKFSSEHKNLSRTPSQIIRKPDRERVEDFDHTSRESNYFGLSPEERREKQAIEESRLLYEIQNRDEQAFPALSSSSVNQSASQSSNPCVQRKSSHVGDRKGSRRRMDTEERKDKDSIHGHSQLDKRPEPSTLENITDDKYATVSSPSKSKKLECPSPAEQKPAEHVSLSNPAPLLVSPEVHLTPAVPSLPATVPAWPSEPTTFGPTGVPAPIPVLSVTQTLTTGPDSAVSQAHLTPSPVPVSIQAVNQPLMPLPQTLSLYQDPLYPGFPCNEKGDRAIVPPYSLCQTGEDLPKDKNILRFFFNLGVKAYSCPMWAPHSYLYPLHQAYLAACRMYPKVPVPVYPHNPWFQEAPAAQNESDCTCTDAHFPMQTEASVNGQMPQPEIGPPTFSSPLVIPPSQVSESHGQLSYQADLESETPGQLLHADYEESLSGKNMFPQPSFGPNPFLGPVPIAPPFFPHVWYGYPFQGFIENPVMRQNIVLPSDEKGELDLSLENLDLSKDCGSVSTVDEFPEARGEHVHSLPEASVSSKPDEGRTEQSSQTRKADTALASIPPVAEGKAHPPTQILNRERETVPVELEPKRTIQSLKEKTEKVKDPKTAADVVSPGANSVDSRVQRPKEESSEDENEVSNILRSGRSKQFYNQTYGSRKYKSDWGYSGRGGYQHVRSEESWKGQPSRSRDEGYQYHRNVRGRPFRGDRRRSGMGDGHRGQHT
Kind of experiment: co-IP; competitive binding co-IP: MYD88 pulled down by OTUD4 with increasing SPARC expression (Figure S5F); cell line not stated.

Chains of the proteins cited; added tags and fusions are not shown.
UniProt Q99836: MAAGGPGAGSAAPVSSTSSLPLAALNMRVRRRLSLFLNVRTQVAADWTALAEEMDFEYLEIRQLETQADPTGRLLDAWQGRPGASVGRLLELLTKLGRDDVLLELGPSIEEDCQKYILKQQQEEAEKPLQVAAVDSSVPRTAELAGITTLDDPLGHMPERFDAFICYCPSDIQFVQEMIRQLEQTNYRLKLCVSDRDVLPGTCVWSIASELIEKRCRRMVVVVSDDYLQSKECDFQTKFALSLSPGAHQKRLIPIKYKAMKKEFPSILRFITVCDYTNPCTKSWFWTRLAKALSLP

The target of experiment [2] is T2, OTUD4 N-terminal domain (aa 1-155) (UniProt Q01804).
T2 sequence: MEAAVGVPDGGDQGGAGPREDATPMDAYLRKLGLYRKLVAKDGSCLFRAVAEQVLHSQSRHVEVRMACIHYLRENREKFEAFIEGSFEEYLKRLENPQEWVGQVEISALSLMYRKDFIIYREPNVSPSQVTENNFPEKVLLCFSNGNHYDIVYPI
Put plainly: co-IP; MYD88 with truncated OTUD4 (Figure S5E); cell line not stated.

Experiment [3] addresses T3, Flag-tagged SPARC (secreted protein acidic and cysteine-rich), full length (1-303) (UniProt P09486).
T3 sequence: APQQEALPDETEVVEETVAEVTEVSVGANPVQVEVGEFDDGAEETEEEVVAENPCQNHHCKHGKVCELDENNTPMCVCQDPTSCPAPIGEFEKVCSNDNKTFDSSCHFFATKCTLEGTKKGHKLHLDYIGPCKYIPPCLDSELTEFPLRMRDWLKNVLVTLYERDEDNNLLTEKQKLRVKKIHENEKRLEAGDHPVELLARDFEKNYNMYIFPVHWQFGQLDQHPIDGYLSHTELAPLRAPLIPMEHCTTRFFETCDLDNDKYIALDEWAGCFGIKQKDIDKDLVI
Kind of experiment: co-IP; Caco-2 cells co-transfected with SPARC-Flag and OTUD4-Myc plasmids (full length and truncated), IP lysis buffer, lysates with magnetic beads overnight at 4 °C, washed 5 times with TBS, western blot. A general note: Immunoblotting shows a protein as a band on a membrane.

Results are given in words; binding and its absence hold for the method and conditions named. Binding seen in cells or lysates may run through a third protein. Some results given as binding are weak or reduced against the parent protein; the word gives no strength. For part of these data: Sequences can lack the tags named with a protein.

Take “His-tagged MYD88 (from UniProt Q99836 1-296)”: the binding result in experiment [1] and in experiment [2] was “binds” in each case.

B1: OTUD4 N-terminal domain (aa 1-155) (domain or fragment, UniProt Q01804 1-155)
chain: MEAAVGVPDGGDQGGAGPREDATPMDAYLRKLGLYRKLVAKDGSCLFRAVAEQVLHSQSRHVEVRMACIHYLRENREKFEAFIEGSFEEYLKRLENPQEWVGQVEISALSLMYRKDFIIYREPNVSPSQVTENNFPEKVLLCFSNGNHYDIVYPI
On to B1, for which, in experiment [3], the binding entry is listed as “binds”.

The values above are taken from article PMC11923920.
